Reference: article PMC8881453, “Cryo-EM structure of translesion DNA synthesis polymerase ζ with a base pair mismatch” (Nature Communications, 2022)
Results are given in words; binding and its absence hold for the method and conditions named. Some results given as binding are weak or reduced against the parent protein; the word gives no strength. Where a sequence is shown, tags or fusion partners need not be part of it.

Target: T1, Rev7, accessory subunit of DNA polymerase ζ (Polζ) (Saccharomyces cerevisiae), P38927
T1 chain: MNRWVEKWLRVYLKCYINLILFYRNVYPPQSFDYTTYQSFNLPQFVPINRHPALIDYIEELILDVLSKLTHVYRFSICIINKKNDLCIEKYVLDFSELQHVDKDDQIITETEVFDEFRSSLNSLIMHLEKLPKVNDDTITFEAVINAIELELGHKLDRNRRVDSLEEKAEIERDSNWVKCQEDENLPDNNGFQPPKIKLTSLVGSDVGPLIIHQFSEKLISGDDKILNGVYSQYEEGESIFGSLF
Assay: cryo-EM structure; Polζ holoenzyme incubated in a CaCl2 supplemented buffer with palindromic DNA (1.5 molar excess) with an A:C mismatch at the primer terminus, 1 mM dCTP; nominal resolution 3.05 Å; both purified
Conditions: remark: other sources report otherwise

- binding: binds
B1: Rev7, accessory subunit of DNA polymerase ζ (Polζ) (natural protein, Saccharomyces cerevisiae, UniProt P38927 1-245, looked up)
chain: MNRWVEKWLRVYLKCYINLILFYRNVYPPQSFDYTTYQSFNLPQFVPINRHPALIDYIEELILDVLSKLTHVYRFSICIINKKNDLCIEKYVLDFSELQHVDKDDQIITETEVFDEFRSSLNSLIMHLEKLPKVNDDTITFEAVINAIELELGHKLDRNRRVDSLEEKAEIERDSNWVKCQEDENLPDNNGFQPPKIKLTSLVGSDVGPLIIHQFSEKLISGDDKILNGVYSQYEEGESIFGSLF
notes: Rev7, Saccharomyces cerevisiae, accessory subunit of Polζ, full-length (residues 1-245); Two copies (Rev7A and Rev7B) stand in the pentameric holoenzyme; also called Rev7B; source: expressed in yeast from plasmids pBJ1462 and pBJ1524, purified as the Polζ holoenzyme
